Where “and” joins values, the source holds several entries; their conditions need not be identical. Equal entries are not always repeated. ± gives the standard deviation of the averaged measurements. Whole data set: some 1,600 compounds, median “normalized intracellular growth (luminescence, IQM-normalized) in RAW264.7 macrophages” near 1, cut for the lowest 2% near 0.43. Some of the results follow.
System: Salmonella enterica serovar Typhimurium SL1344
Assay: normalized intracellular growth (luminescence, IQM-normalized) in RAW264.7 macrophages (fraction of plate interquartile mean); higher = more bacterial growth (less inhibition)
Conditions: 10 µM

Compound | normalized intracellular growth (time point: T3 (3 h)) | normalized intracellular growth (time point: Tfinal (~6 h))
C=C1c2cccc(O)c2C(=O)C2=C(O)[C@]3(O)C(=O)C(C(N)=O)=C(O)[C@@H](N(C)C)[C@@H]3[C@@H](O)[C@H]12 | 0.979 ± 0.029 | 0.103 ± 0.039
c1ccc(C2CN3CCSC3=N2)cc1 (centres undefined) | 1.03 ± 0.029 | 0.652 ± 0.033
OC[C@H]1O[C@H]([S-])[C@H](O)[C@@H](O)[C@@H]1O.[Au+] | 0.978 ± 0.019 | 1 ± 0.2
O=C(NCc1ccccc1)OCCO | 1.24 ± 0.071 | 1.33 ± 0.083
Cc1nc2ccccc2n1Cc1ccc(Cl)cc1 | 1.02 ± 0.042 | 0.455 ± 0.14
Cc1cc(=O)oc2cc(O)ccc12 | 1.03 ± 0.08 | 1.03 ± 0.098
CC(COc1ccccc1)N(CCCl)Cc1ccccc1 (centres undefined) | 0.929 ± 0.017 | 0.92 ± 0.074
Nc1ncn([C@@H]2O[C@H](CO)[C@@H](O)[C@H]2O)c(=O)n1 | 0.951 ± 0.029 | 0.154 ± 0.087
CCCNC(C)C(=O)Nc1ccccc1C (centres undefined) | 1.04 ± 0.03 | 0.794 ± 0.45
COc1ccc(CN(CCN(C)C)c2ccccn2)cc1 | 1.04 ± 0.026 | 1.01 ± 0.0046
CC(=O)c1ccc(S(=O)(=O)NC(=O)NC2CCCCC2)cc1 | 1.1 ± 0.022 | 1.18 ± 0.15
CCOC(=O)OC(C)OC(=O)[C@@H]1N2C(=O)[C@@H](NC(=O)[C@H](N)c3ccccc3)[C@H]2SC1(C)C (some centres undefined) | 1.03 ± 0.053 | 0.978 ± 0.12
CCOC(=O)[C@H](CCc1ccccc1)N[C@H]1CCc2ccccc2N(CC(=O)O)C1=O | 0.901 ± 0.1 | 0.85 ± 0.18
COC1=C(OC)C(=O)C(CCCCCCCCCCO)=C(C)C1=O | 0.981 ± 0.1 | 1.14 ± 0.2
NCCCC[C@H](N[C@@H](CCc1ccccc1)C(=O)O)C(=O)N1CCC[C@H]1C(=O)O | 1 ± 0.011 | 1.06 ± 0.021
CC(C)(C)NC[C@H](O)COc1nsnc1N1CCOCC1 | 1.17 ± 0.12 | 1.23 ± 0.062
C[C@]12CCC(=O)C=C1CC[C@@H]1[C@@H]2[C@@H](O)C[C@@]2(C)[C@H]1CC[C@]2(O)C(=O)COC(=O)CCC(=O)O | 0.965 ± 0.051 | 0.869 ± 0.058
CO/N=C(\C(=O)N[C@@H]1C(=O)N2C(C(=O)O)=C(CSc3nc(=O)c(O)nn3C)CS[C@H]12)c1csc(N)n1 | 0.891 ± 0.022 | 0.311 ± 0.035
CO[C@@H]1[C@@H](OC(N)=O)[C@@H](O)[C@H](Oc2ccc3c(O)c(NC(=O)c4ccc(O)c(CC=C(C)C)c4)c(=O)oc3c2C)OC1(C)C | 0.98 ± 0.031 | 0.903 ± 0.17
CC(=O)Oc1cccc(O)c1 | 1.06 ± 0.083 | 0.868 ± 0.26
CCN1CCN(C(=O)N[C@@H](C(=O)N[C@@H]2C(=O)N3[C@@H]2SC(C)(C)[C@@H]3C(=O)O)c2ccccc2)C(=O)C1=O | 0.778 ± 0.051 | 0.906 ± 0.12
CN(C)CCC[C@@]1(c2ccc(F)cc2)OCc2cc(C#N)ccc21 | 1 ± 0.0023 | 0.875 ± 0.066
CC1=CC(=O)NS(=O)(=O)O1 | 1.06 ± 0.077 | 1.04 ± 0.089

Compound | normalized intracellular growth (time point: T3 (3 h)) | normalized intracellular growth (time point: Tfinal (~6 h))
O=C(CNC(=O)c1ccc(Cl)cc1)NO | 0.973 ± 0.089 | 1.03 ± 0.12
CN1CCCC(n2nc(Cc3ccc(Cl)cc3)c3ccccc3c2=O)CC1 (centres undefined) | 0.945 ± 0.046 | 1.23 ± 0.032
CN1CCCCC1CCN1c2ccccc2Sc2ccc([S+](C)[O-])cc21 (centres undefined) | 0.953 ± 0.033 | 1.1 ± 0.085
O=C(O[C@H]1CN2CCC1CC2)N1CCc2ccccc2[C@@H]1c1ccccc1 | 0.955 ± 0.098 | 1.11 ± 0.13
NC(=O)N/N=C/c1ccc([N+](=O)[O-])o1 | 1.2 ± 0.043 | 1.05 ± 0.047
N=C(N)NC(=N)N1CCOCC1 | 0.935 ± 0.033 | 1.11 ± 0.11
Cc1ncc(CSSCc2cnc(C)c(O)c2CO)c(CO)c1O | 0.943 ± 0.057 | 1.06 ± 0.015
CC(=O)Oc1cccc2c1C(=O)c1c(OC(C)=O)cc(C(=O)O)cc1C2=O | 0.967 ± 0.044 | 0.921 ± 0.11
C=C1C[C@H]2[C@@H]3C=C(C)C4=CC(=O)CC[C@]4(C)[C@H]3CC[C@]2(C)[C@@]1(OC(C)=O)C(C)=O | 0.96 ± 0.027 | 0.899 ± 0.057
N[C@H]1C(O)O[C@H](CO)[C@@H](O)[C@@H]1O (some centres undefined) | 0.967 ± 0.045 | 0.999 ± 0.058
OCCN1CCN(CCCN2c3ccccc3Sc3ccc(Cl)cc32)CC1 | 0.875 ± 0.13 | 0.88 ± 0.038
CN(C)CCc1c[nH]c2ccc(Cn3cncn3)cc12 | 1.01 ± 0.055 | 1.18 ± 0.16
Nc1ccc(S(=O)(=O)c2ccc(N)cc2)cc1 | 1.01 ± 0.04 | 0.866 ± 0.025
N=C(N)NCC1COC2(CCCCC2)O1 (centres undefined) | 0.997 ± 0.04 | 1.02 ± 0.062
CC1(C)OC(=O)NC1=O | 0.974 ± 0.074 | 1.1 ± 0.072
Nc1ccc(C(=O)NCC(=O)O)cc1 | 0.983 ± 0.071 | 1 ± 0.011
COc1ccc(NS(=O)(=O)c2ccc(N)cc2)nn1 | 0.994 ± 0.058 | 1.01 ± 0.052
CCC[C@H](N[C@@H](C)C(=O)N1[C@H](C(=O)O)C[C@@H]2CCCC[C@@H]21)C(=O)OCC | 0.911 ± 0.034 | 1.24 ± 0.037
Cn1nnnc1SCC1=C(C(=O)O)N2C(=O)[C@@H](NC(=O)[C@H](O)c3ccccc3)[C@H]2SC1 | 1.08 ± 0.041 | 1.02 ± 0.17
O=C(CCCN1CC=C(n2c(=O)[nH]c3ccccc32)CC1)c1ccc(F)cc1 | 1.17 ± 0.055 | 1.18 ± 0.031
CCN(CC)CCNC(=O)c1cc(S(C)(=O)=O)ccc1OC | 1.08 ± 0.043 | 1.08 ± 0.087
Oc1c(I)cc(I)c2cccnc12 | 1.02 ± 0.046 | 0.913 ± 0.041
C#CCN(C)Cc1ccccc1 | 1.07 ± 0.045 | 1.01 ± 0.13

Compound | normalized intracellular growth (time point: T3 (3 h)) | normalized intracellular growth (time point: Tfinal (~6 h))
CCn1cc(C(=O)O)c(=O)c2ccc(C)nc21 | 0.994 ± 0.03 | 0.881 ± 0.37
C[C@H]1[C@@H](O)O[C@@H]2O[C@@]3(C)CC[C@H]4[C@H](C)CC[C@@H]1[C@@]24OO3 | 0.988 ± 0.069 | 0.686 ± 0.071
CCCCCC(C)N (centres undefined) | 0.993 ± 0.077 | 0.979 ± 0.12
COc1ccc2cc(CCC(C)=O)ccc2c1 | 1.01 ± 0.033 | 1.11 ± 0.12
O=C(O)CCC(=O)OC[C@@H](NC(=O)C(Cl)Cl)[C@H](O)c1ccc([N+](=O)[O-])cc1 | 0.927 ± 0.048 | 0.178 ± 0.014
CC(=O)N[C@@H](CC(=O)N[C@@H](CCC(=O)O)C(=O)O)C(=O)O | 0.983 ± 0.061 | 0.998 ± 0.13
Cc1ccc(S(=O)(=O)NC(=O)NN2CC3CCCC3C2)cc1 (centres undefined) | 0.969 ± 0.056 | 1.06 ± 0.012
CCn1cc(C(=O)O)c(=O)c2cnc(N3CCNCC3)nc21 | 0.974 ± 0.034 | 0.533 ± 0.082
COc1cc2nc(N3CCN(C(=O)c4ccco4)CC3)nc(N)c2cc1OC | 0.919 ± 0.12 | 0.917 ± 0.062
NCCS(=O)(=O)O | 0.941 ± 0.044 | 1.04 ± 0.13
C=CC[C@@H]1/C=C(\C)C[C@H](C)C[C@H](OC)[C@H]2O[C@@](O)(C(=O)C(=O)N3CCCC[C@H]3C(=O)O[C@H](/C(C)=C/[C@@H]3CC[C@@H](O)[C@H](OC)C3)[C@H](C)[C@@H](O)CC1=O)[C@H](C)C[C@@H]2OC | 0.931 ± 0.044 | 0.915 ± 0.27
NC[C@H]1O[C@H](O[C@H]2[C@H](O[C@@H]3O[C@H](CO)[C@@H](O)[C@H]3O)[C@@H](O)[C@H](N)C[C@@H]2N)[C@H](N)[C@@H](O)[C@@H]1O | 1 ± 0.076 | 1.11 ± 0.17
CCN(Cc1ccncc1)C(=O)C(CO)c1ccccc1 (centres undefined) | 0.97 ± 0.059 | 1.03 ± 0.12
OC(CCN1CCCCC1)(c1ccccc1)C1CC2C=CC1C2 (centres undefined) | 1.09 ± 0.043 | 0.844 ± 0.14
CCN(CC)CC#CCOC(=O)C(O)(c1ccccc1)C1CCCCC1 (centres undefined) | 1.09 ± 0.034 | 1.13 ± 0.044
CN1C2CCCC1CC(NC(=O)c1nn(C)c3ccccc13)C2 (centres undefined) | 1.14 ± 0.036 | 0.935 ± 0.11
CC(C)N1CCN(c2ccc(OCC3COC(Cn4cncn4)(c4ccc(Cl)cc4Cl)O3)cc2)CC1 (centres undefined) | 1.02 ± 0.043 | 1.13 ± 0.095
CCCCC(=O)O[C@]1(C(=O)CO)CC[C@H]2[C@@H]3CCC4=CC(=O)CC[C@]4(C)[C@H]3[C@@H](O)C[C@@]21C | 1.09 ± 0.043 | 1.11 ± 0.039
Cc1noc(NS(=O)(=O)c2ccc(N)cc2)c1C | 1.13 ± 0.019 | 1.11 ± 0.033
CCc1cccc2c3c([nH]c12)C(CC)(CC(=O)O)OCC3 (centres undefined) | 0.97 ± 0.043 | 0.968 ± 0.028
CC1=C(CC(=O)O)c2cc(F)ccc2/C1=C\c1ccc([S+](C)[O-])cc1 (centres undefined) | 1.05 ± 0.11 | 1.05 ± 0.07
CC(Oc1c(Cl)cccc1Cl)C1=NCCN1 (centres undefined) | 1.01 ± 0.057 | 1.01 ± 0.069
CO/N=C(\C(=O)N[C@@H]1C(=O)N2C(C(=O)O)=C(C[N+]3(C)CCCC3)CS[C@H]12)c1csc(N)n1 | 1.01 ± 0.054 | 0.0358 ± 0.0021

Some values from the list.
normalized intracellular growth (time point: Tfinal (~6 h)), `CN(C)CCC[C@@]1(c2ccc(F)cc2)OCc2cc(C#N)ccc21` is entered as 0.875 ± 0.066
normalized intracellular growth (time point: Tfinal (~6 h)), `CCCCC(=O)O[C@]1(C(=O)CO)CC[C@H]2[C@@H]3CCC4=CC(=O)CC[C@]4(C)[C@H]3[C@@H](O)C[C@@]21C` is entered as 1.11 ± 0.039
normalized intracellular growth (time point: T3 (3 h)), `Cc1ccc(S(=O)(=O)NC(=O)NN2CC3CCCC3C2)cc1` (centres undefined) is entered as 0.969 ± 0.056
normalized intracellular growth (time point: Tfinal (~6 h)), `CC(=O)Oc1cccc2c1C(=O)c1c(OC(C)=O)cc(C(=O)O)cc1C2=O` is entered as 0.921 ± 0.11

(list continues)

Compound | normalized intracellular growth (time point: T3 (3 h)) | normalized intracellular growth (time point: Tfinal (~6 h))
CCOC(=O)[C@H](CCc1ccccc1)N[C@@H](C)C(=O)N1CCC[C@H]1C(=O)O | 1.03 ± 0.029 | 0.918 ± 0.36
Cn1nnnc1SCC1=C(C(=O)O)N2C(=O)[C@@H](NC(=O)[C@H](OC=O)c3ccccc3)[C@H]2SC1 | 0.866 ± 0.094 | 0.979 ± 0.024
CC(=O)Nc1ccc(O)cc1 | 1.06 ± 0.021 | 1.09 ± 0.045
O=S(=O)(O)CCCS(=O)(=O)O | 1.01 ± 0.095 | 0.9 ± 0.34
COc1ccc2[nH]c([S+]([O-])Cc3ncc(C)c(OC)c3C)nc2c1 (centres undefined) | 1.06 ± 0.07 | 0.977 ± 0.23
CCCCC(CC)CN=C(N)N=C(N)NCCCCCCNC(N)=NC(N)=NCC(CC)CCCC (centres undefined) | 0.994 ± 0.063 | 1.1 ± 0.035
Cc1ccccc1N1C(=O)c2cc(S(N)(=O)=O)c(Cl)cc2NC1C (centres undefined) | 0.999 ± 0.076 | 1.22 ± 0.059
Cc1cc(-n2c(=O)[nH]c(=O)n(C)c2=O)ccc1Oc1ccc(SC(F)(F)F)cc1 | 1.05 ± 0.071 | 0.715 ± 0.13
CC(C)COC(=O)c1ccc(N)cc1 | 1.01 ± 0.068 | 0.971 ± 0.071
OCCOCCN1CCN(C(c2ccccc2)c2ccc(Cl)cc2)CC1 (centres undefined) | 1.01 ± 0.06 | 1.02 ± 0.024
Nc1cc(-c2ccncc2)c[nH]c1=O | 0.998 ± 0.044 | 0.977 ± 0.12
COC(=O)C(N)CS (centres undefined) | 1.05 ± 0.053 | 0.788 ± 0.092
CC(N)C12CC3CC(CC(C3)C1)C2 (centres undefined) | 1.05 ± 0.013 | 0.989 ± 0.13
CN(C)CC[C@@H](c1ccc(Cl)cc1)c1ccccn1 | 1 and 1.05 | 1.01 and 0.736
CN(CCOc1ccc(CC2SC(=O)NC2=O)cc1)c1ccccn1 (centres undefined) | 0.993 ± 0.055 | 0.982 ± 0.025
CCCc1nc(C(C)(C)O)c(C(=O)O)n1Cc1ccc(-c2ccccc2-c2nnn[nH]2)cc1 | 1.027 ± 0.0089 | 1.118 ± 0.0057
O=C(OCc1ccccc1)c1ccccc1 | 0.966 ± 0.057 | 0.928 ± 0.069
OC(CCN1CCCCC1)(c1ccccc1)C1CCCCC1 (centres undefined) | 0.817 ± 0.033 | 0.993 ± 0.087
Cc1ccc2c(Cl)cc(Cl)c(O)c2n1 | 0.97 ± 0.027 | 1.07 ± 0.15
N=C(N)N/N=C/c1c(Cl)cccc1Cl | 0.985 ± 0.086 | 1.09 ± 0.055
CN(C)CCOC(=O)COc1ccc(Cl)cc1 | 0.996 ± 0.047 | 1.04 ± 0.14
CC(Oc1ccccc1)C(=O)N[C@@H]1C(=O)N2[C@@H]1SC(C)(C)[C@@H]2C(=O)O (some centres undefined) | 1.23 ± 0.12 | 1.16 ± 0.066
COc1ccc(-c2cc(C(F)F)nn2-c2ccc(S(N)(=O)=O)cc2)cc1F | 1.01 ± 0.069 | 0.754 ± 0.11

Reference: the supplement of paper PMC6331611
